Experimental findings from paper PMC11334840 are described below.

Chains of the proteins cited; added tags and fusions are not shown. Residues count along the entry.
UniProt P06241, residues 82-143: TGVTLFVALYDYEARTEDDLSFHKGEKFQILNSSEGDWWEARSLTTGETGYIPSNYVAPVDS
UniProt P07947: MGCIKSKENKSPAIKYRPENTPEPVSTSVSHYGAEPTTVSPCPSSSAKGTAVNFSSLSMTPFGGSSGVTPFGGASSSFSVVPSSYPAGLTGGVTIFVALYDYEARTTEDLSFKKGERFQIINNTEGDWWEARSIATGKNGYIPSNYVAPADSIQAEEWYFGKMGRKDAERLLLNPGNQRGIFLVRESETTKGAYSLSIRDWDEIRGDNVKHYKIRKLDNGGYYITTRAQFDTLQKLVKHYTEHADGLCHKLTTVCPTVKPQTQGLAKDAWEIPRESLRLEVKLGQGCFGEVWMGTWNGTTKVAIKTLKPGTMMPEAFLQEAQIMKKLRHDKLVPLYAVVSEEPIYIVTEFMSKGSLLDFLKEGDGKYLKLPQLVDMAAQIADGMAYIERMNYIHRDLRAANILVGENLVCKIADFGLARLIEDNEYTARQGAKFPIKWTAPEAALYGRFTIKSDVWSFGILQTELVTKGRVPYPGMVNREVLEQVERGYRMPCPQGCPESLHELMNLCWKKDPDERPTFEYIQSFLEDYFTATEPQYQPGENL

The target of assay [1] is epidermal growth factor receptor (human (endogenous in HEK293T)) (UniProt P00533). Put plainly: co-IP; anti-EGFR immunoprecipitation from 1 mg HEK293T lysate, 2 h at room temperature; cells without FBS for 18 h, then 45 min with or without FBS; western blots for Src and Yes. (In general: In western blotting, separated proteins are transferred to a membrane and probed.)
For assay [2], the target named is GST fusion of the FYN SH3 domain (microarray spot) (UniProt P06241). Put plainly: peptide or protein array; GST fusion SH3 domain proteins (about 250 ng) spotted in duplicate on nitrocellulose-coated slides; probed 1 h with biotinylated HER2 tail peptide bound to Cy3-streptavidin in PBST; two fluorescent spots count as binding; both purified.
The target in assay [3] is T1, GST fusion of the PLCγ1 SH3 domain (microarray spot) (UniProt P19174).
T1 sequence: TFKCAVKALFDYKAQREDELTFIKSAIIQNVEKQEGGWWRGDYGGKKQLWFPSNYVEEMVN
Described as above.

Results are given in words; binding and its absence hold for the method and conditions named. For part of these data: Binding seen in cells or lysates may run through a third protein. Some results given as binding are weak or reduced against the parent protein; the word gives no strength. For part of these data: Where a sequence is shown, tags or fusion partners need not be part of it.

As for “Src family tyrosine kinase YES (from UniProt P07947 1-543)”, in assay [1], the binding entry is reported as “binds”.
With GGGGAAPQPHPPPAFSPAFDNL (biotinylated; bound to Cy3-streptavidin) [PRM-containing HER2 tail sequence probe peptide of the protein domain microarray], the binding entry in assay [2] and in assay [3] was “binds” in each case.
